Consider one substance from patent US20050158370A1 (Amura Therapeutics Limited, priority 2002, published 2005).

The data set in a line: general procedure: Fmoc solid-phase peptide synthesis; TGR resin. Conditions: whole synthesis, scale 0.05 mmol, one disulfide bridge.

In turn, Acetyl-CYIQNCPLGK(COCH2CH2CONHNH2)—NH2 showed an isolated mass of 24 mg and an isolated yield of 37%.
